# Literature values as cited in publication PMC12389355, “Physiologically Based Pharmacokinetic Modeling to Assess Perpetrator and Victim Cytochrome P450 2C Induction Risk” (Pharmaceutics, 2025).
# Conditions: victim drug after administration with rifampicin; References of Table 4 ([27]-[43]), DIDB; cited from earlier work
compound,measurement,value
"CC(C)c1c(C(=O)Nc2ccccc2)c(-c2ccccc2)c(-c2ccc(F)cc2)n1CC[C@@H](O)C[C@@H](O)CC(=O)O [Atorvastatin (acid), atorvastatin]",% AUC Reduction (Clinically Observed),80.2%
